Data on 52 compounds can be found in PubChem BioAssay AID1487 (National Center for Advancing Translational Sciences (NCATS), 2009).

Usually AC50 stands for the midpoint of the concentration-response curve, whichever way the signal moves.

The nature of the assay: qHTS Assay for Modulators of Lamin A Splicing. To be noted: HeLa LMNA splicing GFP/RFP minigene ratio, 48 h. Summed up: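 S3 HeLa cells stably expressing lamin A-EGFP splicing minigene plus DsRed2, 600 cells/well, 48 h compound exposure at 37C. Laser-scanning cytometry; analysed as GFP (500-530 nm)/RFP (575-640 nm) total intensity ratio; 0.5% DMSO vehicle.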
Where [1] appears, read: measured here: RFP viability control channel.
[2] abbreviates: measured here: GFP splicing reporter channel.

Each structure is given as a SMILES string. Several values for one entry are separate records, joined by “and”; a condition that tells them apart may be missing. Identical values can stand only once. This is one part of the list. These are further read-outs of the screen, such as a control signal, another cell line or another target. No call is given for them. Most of these compounds were active or inconclusive in the main read-out, so they are no random draw. Words in brackets tell the shape of the fitted curve; partial curves, single points and poor fits give uncertain potencies.

In the case of `Cc1cccc(-n2c(SCC(=O)N3CCCC3)nc3n[nH]c(C)c3c2=N)c1`, the concentration at half-maximal activity (AC50) under setting [1] was 11.2 µM [rising, single point].

Regarding `CS(=O)(=O)N(CC(=O)NCC1CCCO1)c1cccc(Cl)c1` (centres undefined), under setting [2], the half-maximal activity concentration (AC50) is 35.5 µM [rising, partial curve].

Regarding `O=C(CN(Cc1ccco1)C(=O)c1ccccc1)Nc1ccc(Cl)c(Cl)c1`, the half-maximal activity concentration (AC50) is 10 µM [falling, single point] under setting [2] and 0.0282 µM [falling, partial curve] under setting [1].

Consider `CCOC(=O)c1c(C)[nH]c(C=O)c1Cc1cccc(Cl)c1`, for which the AC50 was 11.2 µM [rising, single point] under setting [2] and 15.8 µM [rising, partial curve] under setting [1].

As to `COc1ccc(Cc2nc(C(=O)Nc3ccc(F)cc3)cs2)cc1`, the AC50 under setting [1] was 11.2 µM [rising, partial curve].

`CCOC(=O)c1[nH]c2ccccc2c1NC(=S)Nc1ccccc1C`: under setting [1], the half-maximal activity concentration (AC50) was 2.24 µM [rising, partial curve, poor fit].

With `CCn1cc(CNC(=O)c2cc(Cl)ccc2OC)c(C)n1`, the half-maximal activity concentration (AC50) under setting [2] was 20 µM [rising, partial curve, poor fit].

For `CCOc1cc(/C=C\c2[nH]c(=O)[nH]c(=O)c2[N+](=O)[O-])ccc1OC(C)CC` (centres undefined), the AC50 under setting [2] was 25.1 µM [falling, single point].

As for `COC(=O)c1scc(-c2ccc(C)cc2)c1S(=O)(=O)Nc1c(C)cc(C)cc1C`, under setting [1], the AC50 was 1.58 µM [rising, full curve, poor fit].

Consider `CCC1Oc2ccccc2N(CC(=O)NCCCN2CCC(C)CC2)C1=O` (centres undefined), for which the concentration at half-maximal activity (AC50) under setting [1] was 14.1 µM [rising, single point].

As for `COc1cc2c(C(=O)N3CCN(c4ccccc4)CC3)c(C)oc2cc1Br`, the AC50 is, setting by setting: under setting [2], 22.4 µM [rising, single point]; under setting [1], 35.5 µM [rising, single point].

Regarding `CCOC(=O)c1c(C)[nH]c(N=Nc2ccc(C)cc2C)c1C`, the AC50 is, setting by setting: under setting [2], 35.5 µM [falling, single point]; under setting [1], 35.5 µM [falling, partial curve].

For `COc1ccc(-n2c(C)cc(C(=O)Cn3nnc4ccccc4c3=O)c2C)cc1`, the half-maximal activity concentration (AC50) under setting [1] was 22.4 µM [rising, partial curve, poor fit].

As to `O=C(/C=C/c1ccc(-c2ccccc2[N+](=O)[O-])o1)c1ccc(Br)cc1`, the AC50 under setting [2] was 14.1 µM [falling, partial curve].

With `O=C(Nc1cccc(C(F)(F)F)c1)N(Cc1ccc(Cl)cc1)CC(O)C(F)(F)F` (centres undefined), the AC50 under setting [2] was 12.6 µM [falling, partial curve, poor fit] and the half-maximal activity concentration (AC50) under setting [1] is 22.4 µM [falling, single point].

As for `CCc1ccccc1NC(=O)c1cc(S(=O)(=O)NC2CCCC2)ccc1F`, the half-maximal activity concentration (AC50) is, setting by setting: under setting [2], 0.02 µM [rising, full curve, poor fit]; under setting [1], 0.0316 µM [rising, full curve, poor fit].

As to `Cc1cc(Cl)cc(Cl)c1OCCOc1cccc2cccnc12`, the half-maximal activity concentration (AC50) under setting [1] was 28.2 µM [rising, single point].

Regarding `Cc1cccc(NC(=O)CSc2nc3c([nH]c4ccccc43)c(=O)n2-c2ccc(F)cc2)c1C`, the AC50 reads like this: under setting [2], 35.5 µM [falling, single point]; under setting [1], 31.6 µM [falling, single point].

Regarding `Cc1cccc(OCC(=O)Nc2ccc3c(c2)N(C)C(=O)c2ccccc2S3)c1`, the AC50 is, setting by setting: under setting [2], 1.12 µM [falling, partial curve]; under setting [1], 31.6 µM [rising, single point].

Turning to `O=C(Cc1cccs1)N1CCCC(c2nc(-c3ccc(S(=O)(=O)N4CCCC4)cc3)no2)C1` (centres undefined), the half-maximal activity concentration (AC50) under setting [1] was 14.1 µM [rising, single point].

On to `N#Cc1ccc(NC(=O)c2cc(-c3cccs3)on2)cc1`, for which the half-maximal activity concentration (AC50) under setting [1] was 1.78 µM [rising, full curve, poor fit].

For the compound `COc1ccc(N2CCN(c3oc(-c4ccccc4OC)nc3C#N)CC2)cc1`, the half-maximal activity concentration (AC50) under setting [1] was 11.2 µM [rising, single point].

Regarding `O=C(C1CCCN(S(=O)(=O)c2cccnc2)C1)N1CCN(c2ccccn2)CC1` (centres undefined), the concentration at half-maximal activity (AC50) under setting [1] is 0.0112 µM [rising, full curve, poor fit].

In the case of `Cc1occc1C(=O)N1CCN(c2ccc(Cl)c(Cl)c2)CC1`, the half-maximal activity concentration (AC50) under setting [1] is 22.4 µM [rising, single point].

`NC1=NC(=O)/C(=C\c2ccsc2)S1`: under setting [2], the half-maximal activity concentration (AC50) was 35.5 µM [falling, single point].

With `CCOc1cc(/C=N/NC(=O)CSc2cccc3cccnc23)ccc1O`, under setting [2], the AC50 is 0.126 µM [falling, full curve, poor fit].

In the case of `CC1(C)CC(NC(=S)NCc2ccc3c(c2)OCO3)CC(C)(C)N1`, under setting [2], the concentration at half-maximal activity (AC50) was 0.891 µM [falling, full curve, poor fit].

For the compound `COc1ccc(Br)cc1CNC(=O)CN1C(=O)CSc2ccc(S(=O)(=O)N3CCOCC3)cc21`, the AC50 under setting [1] was 0.01 µM [falling, full curve, poor fit].

For `Cc1ccc(NC(=O)c2cc3c(=O)n(Cc4cccnc4)ccc3nc2C)cc1F`, the AC50 is, setting by setting: under setting [2], 3.16 µM [falling, partial curve]; under setting [1], 3.98 µM [falling, partial curve, poor fit].

Consider `O=C(CO/N=C\c1ccccc1)Nc1ccccc1C(=O)N1CCOCC1`, for which the AC50 by setting is: under setting [2], 14.1 µM [rising, partial curve]; under setting [1], 20 µM [rising, single point].

As for `Cc1ccc(-c2[nH]ncc2/C=N/n2c(COc3ccccc3C)nc3ccccc3c2=O)cc1`, the AC50 under setting [1] is 22.4 µM [rising, single point].

With `Cc1cccc(C(=O)Nc2cccc(C(=O)OCc3cc(=O)n4ccsc4n3)c2)c1`, the concentration at half-maximal activity (AC50) under setting [1] is 0.00447 µM [falling, full curve, poor fit].

With `O=C(NC(CC(=O)N1CCN(c2ccccc2)CC1)c1ccccc1)c1ccccc1Cl` (centres undefined), the AC50 is 17.8 µM [rising, single point] under setting [2] and 35.5 µM [rising, single point] under setting [1].

With `CCN(CC)CCCN1C(=O)C(O)=C(C(=O)c2sc(C)nc2C)C1c1ccc(C)o1` (centres undefined), the concentration at half-maximal activity (AC50) is 6.31 µM [rising, single point] under setting [2] and 5.62 µM [rising, single point] under setting [1].

On to `COc1ccc(CCNC(=O)C(=O)NCC2OCCN2S(=O)(=O)c2ccc(Br)cc2)cc1` (centres undefined), for which the concentration at half-maximal activity (AC50) reads like this: under setting [2], 5.01 µM [rising, partial curve, poor fit]; under setting [1], 5.62 µM [rising, partial curve].

On to `CC(C)(C)NC(=O)NC(=O)CN1CCN(C(c2ccccc2)c2ccccc2)CC1`, for which, under setting [1], the concentration at half-maximal activity (AC50) is 35.5 µM [rising, single point].

Turning to `COc1ccc(-c2csc3nc(C(C)(C)C)oc(=O)c23)cc1OC`, the AC50 by setting is: under setting [2], 3.98 µM [falling, full curve]; under setting [1], 3.16 µM [falling, partial curve].

Turning to `Oc1cccc(/C=N/NC(=S)NCCN2CCOCC2)c1O`, the AC50 under setting [2] was 35.5 µM [falling, single point] and the concentration at half-maximal activity (AC50) under setting [1] was 35.5 µM [falling, single point].

Turning to `O=C(Nc1ccc(F)cc1)c1cccc(N2C(=O)C3C4CCC(C4)C3C2=O)c1` (centres undefined), the concentration at half-maximal activity (AC50) runs as follows: under setting [2], 11.2 µM [rising, partial curve]; under setting [1], 14.1 µM [rising, partial curve].

As for `CC(C)(C)c1ccc2c(c1)OC(C(=O)N/N=C\c1ccccn1)CO2` (centres undefined), the AC50 was 3.16 µM [rising, partial curve, poor fit] under setting [2] and 0.708 µM [rising, partial curve] under setting [1].

As for `O=C(COc1ccccc1)Nc1nc(-c2ccc(S(=O)(=O)N3CCOCC3)cc2)cs1`, the AC50 is 15.8 µM [rising, partial curve, poor fit] under setting [2] and 22.4 µM [rising, single point] under setting [1].

As to `COc1ccccc1N1CCN(CC(=O)Nc2ccc(Cl)c(C(F)(F)F)c2)CC1`, under setting [1], the concentration at half-maximal activity (AC50) is 35.5 µM [rising, single point].

For the compound `COC(=O)Cc1ccc(N(Cc2ccccc2F)S(=O)(=O)c2ccc(C)cc2)cc1`, under setting [1], the concentration at half-maximal activity (AC50) was 3.98 µM [falling, partial curve].

As to `CCN1CCN(c2cc(C)c3cc(NC(=S)N4CCC5(CC4)OCCO5)ccc3n2)CC1`, the AC50 under setting [2] is 1.26 µM [falling, partial curve, poor fit].

Consider `NS(=O)(=O)c1cc2c(cc1Cl)NC=NS2(=O)=O`, for which the AC50 is, setting by setting: under setting [2], 3.55 µM [falling, single point] and 6.31 µM [falling, partial curve, poor fit] and 6.31 µM [falling, single point]; under setting [1], 0.891 µM [falling, partial curve, poor fit].

As to `O=C(Cn1ccc2ccccc2c1=O)NCCC(=O)N1CCN(c2cccc(C(F)(F)F)c2)CC1`, the AC50 is, setting by setting: under setting [2], 14.1 µM [rising, single point]; under setting [1], 17.8 µM [rising, single point].

With `O=C(CCNc1ccc(Cc2ccncc2)cc1)c1ccc([N+](=O)[O-])cc1`, the half-maximal activity concentration (AC50) under setting [2] was 5.62 µM [falling, single point].

Turning to `Cc1cc(C)c(C(=O)OCCNC(=O)c2cccnc2)cc1C`, the concentration at half-maximal activity (AC50) reads like this: under setting [2], 11.2 µM [rising, partial curve, poor fit]; under setting [1], 12.6 µM [rising, partial curve, poor fit].

Take `O=C(Nc1c(C(=O)Nc2cccc(F)c2)oc2ccccc12)c1ccc2c(c1)OCO2`: under setting [1], the AC50 was 17.8 µM [falling, single point].

Take `C[C@@H](C(=O)NCc1ccccc1)[C@H]1C[C@]1(C)[C@H](NC(=O)OCc1ccccc1)c1ccccc1`: the AC50 under setting [1] was 11.2 µM [rising, partial curve].

Take `CSc1nc(C)cc(SCC(=O)Nc2ccc(Cl)cc2Cl)n1`: the AC50 reads like this: under setting [2], 35.5 µM [rising, single point]; under setting [1], 35.5 µM [rising, single point].

In the case of `O=C(NCC1(c2ccccc2)CCCC1)c1ccccc1`, the half-maximal activity concentration (AC50) under setting [1] is 14.1 µM [rising, single point].
